Results from the supplement of paper PMC5949888.
Most values lie at the floor of the assay. Slopes are relative: functional sequences can read slightly below zero.

Test system: Saccharomyces cerevisiae PS128 hsf1 delta, HSF1(1-493) fusion
Assay: growth estimate (transactivation domain function in HSF1 fusion, heat-shock survival) (a.u. (slope of normalised read count over time)); higher = stronger growth at 37°C, i.e. more transactivation activity
Conditions: library: random library

Substance | growth estimate
SLTPNGLVRSA | < -0.25
CWVATAPFLA | < -0.25
LVGHGRGA | < -0.25
LLRRLPSCQ | < -0.25
KGHAETVGRAVNGLN | < -0.25
SLSLPSVRRARGSVPRHVED | < -0.25
PKCLGVIGHIGSGSGDALA | < -0.25
LRAAVGIARVEPACPPVVSW | < -0.25
SGRRTRTIISRLVSFIMWKN | < -0.25
AICQLEISRPSVRSSARIGW | < -0.25
KDGVSVRGDSIVLVEMQ | -0.246
KRIGEISEAV | < -0.25
HVRNLFVKSVTAAMTV | < -0.25
TASFCRAWITDRAGVIPVSE | < -0.25
YQNYSVVGISPGVISMAFH | < -0.25
GSGLLVRGNKS | < -0.25
GKPLGPCSS | < -0.25
HSYPILESGAPRHNRQSNRN | < -0.25
EHSGPSERCTA | -0.243
SPGDSS | < -0.25
GVVLVWTSIAVAD | < -0.25
VLNLMVCPRARATPLNKCVA | < -0.25
DWPTMDDTRESPR | < -0.25
RQGTRMWRRTRGVV | < -0.25
SWRSFSQCHWVTVAPRTFNH | < -0.25

Substance | growth estimate
AALMENFETLTKGAGCVRRE | < -0.25
SEWWLAMVSRWVPRARHATC | < -0.25
SIRVATSPSGQKHGLTGASV | < -0.25
WGGSPQEGFLHGHTGRCREP | < -0.25
KGFCIIST | < -0.25
QWQSSQITDFVLRTPTALPQ | < -0.25
LGVLGLKR | < -0.25
SYKNEPRPSNIKA | < -0.25
HRVTRGPWEMSEIARALSKL | < -0.25
PSGCSRGYQLCVMNGYEAYR | < -0.25
PNMGCGGWSRCTGPRSLILR | -0.243
WLWP | -0.106
CLSKNDNLQFVGRR | -0.145
ERPAPRWWGVHGSKGVVYVE | < -0.25
GSGPSRYSRLAGEKRKFKKG | < -0.25
TQLYL | < -0.25
TQSRGVGPPHHRLV | -0.234
EDRRTRSSYVVTVAIVPNPY | < -0.25
IATSIVITFLVDQISGRVEG | < -0.253
QGGTLANGLFGITFTSNSGR | < -0.25
LLQRSGSDVGLYRAS | -0.173
LRGYYNPRFKVASNA | < -0.25
TKPGSRPDKRPPRSTCAFFA | < -0.25
ATLVSEPLGISIPVENDT | < -0.25
SIR | < -0.25

Substance | growth estimate
GVLVLGSGRRLKKVYVWSSV | < -0.25
ETFLQIRL | < -0.25
NAGLSLMW | < -0.25
GPGCDL | < -0.25
RTSGPEKKVFGIACVNRTRP | < -0.25
FQPRTAPRRRDRFLGL | < -0.25
IADVWYDAGAGITSDSCHGF | -0.146
ERNVGGPYDNH | < -0.25
TVVGSFISPGPRYGSTCRRE | -0.246
HSLHVETDTKEAGSWHHILR | < -0.25
EAQFGICRQGSV | < -0.25
LGCIV | < -0.25
RWFVVTFS | < -0.25
GGGRHSTA | < -0.25
SGLRNPPASAVCTPGS | < -0.25
GQKTQTIVWRGQVVVAHDEL | < -0.25
LLDEGLVASAHLLISIILVS | < -0.25
VLVGGLVRDTAFMGAHTCIL | < -0.25
LMRAREDQTGHYWSASRERG | < -0.25
NLM | < -0.25
CGFAVDKVFDYLYY | < -0.25
GAAWKRMTRVG | < -0.25
GLS | < -0.25
HRCLRDLSPIEFESACNRKS | < -0.25
TVLCSASWIQ | < -0.25

Substance | growth estimate
CGCDSG | -0.138
RSCANMIGGFRMLYLGWSVL | < -0.25
LMVCCKPAPRILAVSSQMAI | < -0.25
SLDEFICNAAA | < -0.25
SSAAYSKLGIGDA | < -0.25
PACSAFVTYPQ | < -0.25
IPPDTRAIPLQGCLWALASK | < -0.25
ESSEETA | -0.195
LVAGKIPS | < -0.25
LYHILLSWFSIIAWGGLHRG | 0.0721
AGKGFG | < -0.25
SGVLEGVAQKVYSRAMLNVV | < -0.25
PQLYV | < -0.25
VTGYNMC | < -0.25
ASGEIG | < -0.25
LFTTGRVRASSDRTAVIDAR | < -0.25
LTGKYQTGQASWFTCKSRSE | < -0.25
VTGGPTRQGRSTLMTGWGLS | < -0.25
RHGIYK | < -0.25
DLVIVTRITRTS | < -0.25
LDLLGKQFQSHSLSVTNYDN | < -0.25
TSRNGPMIGLSNLGASLARH | < -0.25
PGDCVCLLKSIALPAG | < -0.25
LPCCAGE | < -0.25
DKEGTL | < -0.25

Taken from above (two entries):
Substance | growth estimate
RHGIYK | < -0.25
DLVIVTRITRTS | < -0.25

Quoted at random: 5 entries already listed.
Substance | growth estimate
LPCCAGE | < -0.25
PGDCVCLLKSIALPAG | < -0.25
SSAAYSKLGIGDA | < -0.25
ASGEIG | < -0.25
SLDEFICNAAA | < -0.25
